From PMC4458873
No constants are given. Whether binding was seen depends on the method and setting. Binding seen in cells or lysates may run through a third protein. Some binding calls cover weakened binding; strength is not graded here.

Chains of the proteins cited; added tags and fusions are not shown.
UniProt P08670: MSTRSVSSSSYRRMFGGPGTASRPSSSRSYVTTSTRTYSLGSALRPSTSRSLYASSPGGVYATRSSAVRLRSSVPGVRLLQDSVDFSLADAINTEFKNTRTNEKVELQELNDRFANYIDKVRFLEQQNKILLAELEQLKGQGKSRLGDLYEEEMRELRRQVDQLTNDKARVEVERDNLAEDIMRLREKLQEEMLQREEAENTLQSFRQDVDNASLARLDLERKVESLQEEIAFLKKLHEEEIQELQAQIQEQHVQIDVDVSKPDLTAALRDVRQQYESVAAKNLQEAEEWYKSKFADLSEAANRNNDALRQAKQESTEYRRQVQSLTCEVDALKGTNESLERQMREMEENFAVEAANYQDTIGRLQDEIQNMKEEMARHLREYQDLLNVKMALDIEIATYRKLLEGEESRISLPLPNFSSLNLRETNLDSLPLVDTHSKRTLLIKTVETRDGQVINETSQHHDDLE

Target: Untagged vimentin wt expressed from the bicistronic RFP//vimentin wt plasmid (UniProt P08670)
Experiment: cross-linking; cells treated with vehicle or 100 μM dibromobimane (DBB) for 15 min, lysed, analysed by WB; where indicated vimentin immunoprecipitated with anti-vimentin V9 agarose

## Untagged vimentin wt expressed from the bicistronic RFP//vimentin wt plasmid (from UniProt P08670 1-466)
  binding: binds
